Measured values: article PMC4119924

Amino acid sequences for entries named in this document (tags omitted). A change or cut given only in a name is not applied to a line headed by its entry.
UniProt Q9BST9: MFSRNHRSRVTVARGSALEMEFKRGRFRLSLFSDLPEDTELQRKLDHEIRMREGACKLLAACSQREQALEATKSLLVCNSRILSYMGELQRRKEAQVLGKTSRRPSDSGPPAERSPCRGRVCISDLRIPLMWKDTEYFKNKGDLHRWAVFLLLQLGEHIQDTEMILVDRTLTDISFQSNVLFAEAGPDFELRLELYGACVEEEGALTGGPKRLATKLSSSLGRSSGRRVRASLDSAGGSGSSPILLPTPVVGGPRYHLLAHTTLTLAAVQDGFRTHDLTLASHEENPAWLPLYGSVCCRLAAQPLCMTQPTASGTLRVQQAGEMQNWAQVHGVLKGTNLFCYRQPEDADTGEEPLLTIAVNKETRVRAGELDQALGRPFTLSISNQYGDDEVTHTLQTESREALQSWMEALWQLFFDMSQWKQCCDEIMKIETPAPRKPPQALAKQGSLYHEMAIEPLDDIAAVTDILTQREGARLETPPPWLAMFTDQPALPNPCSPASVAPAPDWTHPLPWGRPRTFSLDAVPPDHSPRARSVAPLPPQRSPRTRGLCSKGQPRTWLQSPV
UniProt P61589: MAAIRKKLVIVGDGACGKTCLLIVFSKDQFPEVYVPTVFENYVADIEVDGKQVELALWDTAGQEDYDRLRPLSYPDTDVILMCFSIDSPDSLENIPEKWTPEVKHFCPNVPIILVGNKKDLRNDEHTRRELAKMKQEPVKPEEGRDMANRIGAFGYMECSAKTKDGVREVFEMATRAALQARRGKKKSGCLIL

Target: GST-fused Rho-binding domain of Rhotekin (UniProt Q9BST9)
Assay: pull-down; GST-rhotekin Rho-binding domain on glutathione-Sepharose beads incubated 1 h with VSMC lysates; bound proteins immunoblotted with anti-RhoA; cells treated beforehand with ADMA (0-30 uM, 30 min), SDMA, L-arginine, Y27632 or DDAH2 overexpression; only the target purified

With RhoA (from UniProt P61589 1-193) the binding was “binds”.

These are yes or no findings as the source states them, for the method shown. Binding seen in cells or lysates may run through a third protein. Binding can be weak; no strength is given.
